# Data as given in article PMC12738564.
# Chains of the proteins cited; added tags and fusions are not shown. Residues count along the entry.
# UniProt O14514, residues 31-1584: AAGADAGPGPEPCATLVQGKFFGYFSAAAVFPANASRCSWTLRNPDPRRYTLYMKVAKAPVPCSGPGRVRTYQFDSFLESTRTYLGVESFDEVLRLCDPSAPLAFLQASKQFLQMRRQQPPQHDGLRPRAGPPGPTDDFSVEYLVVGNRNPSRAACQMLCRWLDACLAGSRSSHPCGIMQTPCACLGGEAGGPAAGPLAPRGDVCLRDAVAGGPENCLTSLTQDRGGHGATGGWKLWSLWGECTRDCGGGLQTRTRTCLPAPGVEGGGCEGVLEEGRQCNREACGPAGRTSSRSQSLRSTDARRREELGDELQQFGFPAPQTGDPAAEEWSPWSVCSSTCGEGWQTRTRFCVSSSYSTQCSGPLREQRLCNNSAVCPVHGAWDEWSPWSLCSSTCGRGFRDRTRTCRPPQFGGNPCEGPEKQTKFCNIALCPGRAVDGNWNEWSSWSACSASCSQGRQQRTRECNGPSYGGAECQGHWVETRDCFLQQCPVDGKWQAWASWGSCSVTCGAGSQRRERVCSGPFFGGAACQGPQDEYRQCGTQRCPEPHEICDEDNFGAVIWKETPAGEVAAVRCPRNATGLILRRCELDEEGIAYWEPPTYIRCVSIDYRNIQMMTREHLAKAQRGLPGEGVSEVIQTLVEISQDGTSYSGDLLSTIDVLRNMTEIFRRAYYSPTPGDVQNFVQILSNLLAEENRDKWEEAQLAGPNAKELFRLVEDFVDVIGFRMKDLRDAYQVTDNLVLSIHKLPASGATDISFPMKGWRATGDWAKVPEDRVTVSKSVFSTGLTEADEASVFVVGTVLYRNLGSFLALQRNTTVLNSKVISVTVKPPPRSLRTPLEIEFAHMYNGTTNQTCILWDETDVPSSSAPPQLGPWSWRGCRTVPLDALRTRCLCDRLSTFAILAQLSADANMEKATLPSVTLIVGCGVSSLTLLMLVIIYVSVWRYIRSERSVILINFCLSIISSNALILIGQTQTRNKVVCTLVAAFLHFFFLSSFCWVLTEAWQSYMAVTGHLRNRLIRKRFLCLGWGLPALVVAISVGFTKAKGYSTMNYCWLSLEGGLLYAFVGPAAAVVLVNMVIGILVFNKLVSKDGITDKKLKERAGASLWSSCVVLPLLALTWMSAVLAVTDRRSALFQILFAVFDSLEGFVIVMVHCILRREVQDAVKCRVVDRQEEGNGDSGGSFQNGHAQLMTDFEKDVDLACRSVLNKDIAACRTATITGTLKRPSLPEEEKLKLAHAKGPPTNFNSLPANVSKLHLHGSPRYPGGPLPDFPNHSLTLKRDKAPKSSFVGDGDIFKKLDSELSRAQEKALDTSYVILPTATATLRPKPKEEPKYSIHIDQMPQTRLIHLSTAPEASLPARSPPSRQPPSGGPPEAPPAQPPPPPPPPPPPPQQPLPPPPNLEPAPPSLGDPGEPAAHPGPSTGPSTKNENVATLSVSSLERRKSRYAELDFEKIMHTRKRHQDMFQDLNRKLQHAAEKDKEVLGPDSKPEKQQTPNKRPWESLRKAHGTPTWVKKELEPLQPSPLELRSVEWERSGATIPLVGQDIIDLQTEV
# UniProt Q00987: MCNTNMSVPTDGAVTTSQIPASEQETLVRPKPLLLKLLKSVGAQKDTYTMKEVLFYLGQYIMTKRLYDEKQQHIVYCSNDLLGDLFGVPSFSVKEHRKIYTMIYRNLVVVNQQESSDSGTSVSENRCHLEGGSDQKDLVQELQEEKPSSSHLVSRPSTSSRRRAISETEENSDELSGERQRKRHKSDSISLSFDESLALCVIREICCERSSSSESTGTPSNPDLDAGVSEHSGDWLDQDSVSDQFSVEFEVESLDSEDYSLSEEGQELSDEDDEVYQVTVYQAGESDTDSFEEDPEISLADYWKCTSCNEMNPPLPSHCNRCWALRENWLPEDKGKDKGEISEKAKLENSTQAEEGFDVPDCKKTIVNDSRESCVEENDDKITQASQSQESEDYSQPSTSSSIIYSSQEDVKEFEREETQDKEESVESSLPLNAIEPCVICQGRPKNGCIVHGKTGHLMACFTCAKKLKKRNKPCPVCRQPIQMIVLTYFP
# These are yes or no findings as the source states them, for the method shown. In cells and extracts the contact can be indirect. Some entries that bind do so weakly or less than the wild type.
# Target: Brain Angiogenesis Inhibitor 1 (BAI1, ADGRB1), endogenous in hNSC (human (endogenous in hNSC)) (UniProt O14514)
# Test: proximity ligation; both proteins endogenous in hNSC (BAI1 WT and BAI1 KO), cells treated with C1q or growth medium, fixed with 4% PFA, permeabilised; Duolink In Situ PLA, punctae per cell
substance,measurement,value
"MDM2, endogenous in hNSC (from UniProt Q00987 1-491)",binding,binds
